Laboratory results: patent publication US20240165200A1, “CATH2 AND DERIVATIVES FOR INHIBITING STREPTOCOCCUS SUIS” (Universiteit Utrecht Holding B.V., priority 2021, published 2024)
Part of at least one peptide drawing is inferred or uncertain, most often the ends. Some of these results come from one statement about several compounds together.

Legend:
[1] = test system: 4 different S. suis serotype 2 strains; test: Colony count assay (MBC), summary over the four strains; assay type: cell-based, Streptococcus suis; settings: four sub-strains, RPMI+10% FCS medium
Protocol: FIG. 1: D-CATH2 and its derivatives efficiently kills several S. suis type2 strains in both THB and RPMI+FCS. Antibacterial activity of D-CATH2 and its derivatives against 10^6 CFU ml^−1 S. suis type 2 strains (P1/7, D282, 5735, and OV625) was tested using a colony count assay in both THB medium (A) and RPMI+FCS (B). 2 log CFU mL^−1 was set as detection limit for the experiment. Data is plotted as average +/−SEM (N=3-4).
S. suis Serotype 2 strains P1/7, D282, S735, and OV625 were grown into mid-logarithmic phase for 3-4 hours at 37° C. in THB, after which bacteria were centrifuged at 1200×g for 10 minutes at 4° C. and resuspended in fresh THB. Concentration was determined by measuring the OD value at 620 nm with an OD of 0.1 is 1×10^8 colony forming units (CFU) mL^−1. 10^6 CFU mL^−1 S suis was mixed with different concentrations of D-CATH and derivatives (0.63−40 μM) and left for 3 hours at 37° C. Ten-fold dilutions were prepared and spread in Tryptan Soy agar (TSA) plates containing 5% (vol/vol) defibrinated sheep blood (Oxoid) and colonies were allowed to grow for 48 hours. Minimal Bactericidal Concentration (MBC) was defined as ≤100 CFU mL^−1 (2 logCFU mL^−1), the detection limit of the assay.

[2] = Isothermal titration calorimetry (ITC) of peptide binding to LTA-SA; set-up: species or system S. aureus; settings: for Kd: 200 μM peptide titrated into LTA-SA, 37° C., dPBS, read-out: Kd (dissociation coefficient)
Protocol: Thermodynamic binding capacity of 200 μM D-CATH2 (A), DC(1-21) (B), and DC(4-21) (C) to 200 μM LTA-SA was measured using isothermal titration calorimetry (ITC). Every 300 seconds, 1.99 μl peptide solution was titrated into 164 μl LTA solution. The corrected heat rate (μJ sec^−1) is plotted (top panel) and normalized integrated heat was plotted against the molar ratio between LTA and the peptide (lower panel). Experiments (N=3) were averaged before plotting and fitting an independent model. The corrected heat rate of D-CATH2, DC(1-21), and DC(4-21) is depicted for comparison (D).
The interaction between the D-CATH2 peptides and LTA-SA was tested using isothermal titration calorimetry (ITC). All ITC experiments were performed on a Low Volume NanoITC (TA instruments-Waters LLC, New Castle, USA). 800 μM of LTA-SA or peptide solution was prepared in MilliQ after which a 4-fold dilution in dPBS (Gibco) was made. The chamber was filled with 164 μl LTA-SA and the peptide was loaded in the syringe. Every 300 seconds, 1.99 μL peptide was titrated into the chamber at 37° C. Data was analyzed using the Nano Analyze software (TA instruments-Waters LLC). The data of three experiments was averaged and an independent model was used to determine the peptide-LTA interaction.

[3] = test system: S. suis P1/7; test: In vivo infection experiment, prophylactic s.c. peptide; set-up: species or system mice; settings: 1 mg/kg s.c.; infection 24 hours or 7 days post peptide injection
[4] = test system: avian pathogenic E. coli; settings: prophylactic in ovo injection of chicken embryos; cited from earlier work
[5] = test system: Salmonella enterica; settings: injected into the yolk, then intravenous lethal dose of Salmonella enterica; cited from earlier work

| SMILES | MBC [1] [µM] | Kd [2] [µM] | LTA binding compared to the other two peptides ([2]; ITC) | survival [3] | colibacilossis-associated mortality and morbidity [4] | mortality [5] |
| --- | --- | --- | --- | --- | --- | --- |
| CC[C@@H](C)[C@@H](NC(=O)[C@@H](CCCCN)NC(=O)[C@@H](CCCNC(=N)N)NC(=O)[C@@H](CC(C)C)NC(=O)[C@@H](Cc1ccccc1)NC(=O)[C@@H](CCCNC(=N)N)NC(=O)CNC(=O)[C@@H](Cc1ccccc1)NC(=O)[C@H](N)CCCNC(=N)N)C(=O)N[C@H](CCCNC(=N)N)C(=O)N[C@H](CCCNC(=N)N)C(=O)N[C@H](Cc1ccccc1)C(=O)N[C@H](CCCNC(=N)N)C(=O)N1CCC[C@@H]1C(=O)N[C@H](CCCCN)C(=O)N[C@@H](C(=O)N[C@@H](C(=O)N[C@@H](C(=O)N[C@@H](C(=O)N[C@@H](C(=O)N[C@H](CCC(N)=O)C(N)=O)[C@H](C)CC)[C@H](C)O)[C@H](C)CC)[C@H](C)O)C(C)C [DC(1-21)] | 0.6 to 2.5 | 10.2 | bind less strong | higher change of survival |  |  |
| CC[C@@H](C)[C@@H](NC(=O)[C@@H](CCCCN)NC(=O)[C@@H](CCCNC(=N)N)NC(=O)[C@@H](CC(C)C)NC(=O)[C@@H](Cc1ccccc1)NC(=O)[C@@H](CCCNC(=N)N)NC(=O)CNC(=O)[C@@H](Cc1ccccc1)NC(=O)[C@H](N)CCCNC(=N)N)C(=O)N[C@H](CCCNC(=N)N)C(=O)N[C@H](CCCNC(=N)N)C(=O)N[C@H](Cc1ccccc1)C(=O)N[C@H](CCCNC(=N)N)C(=O)N1CCC[C@@H]1C(=O)N[C@H](CCCCN)C(=O)N[C@@H](C(=O)N[C@@H](C(=O)N[C@@H](C(=O)N[C@@H](C(=O)N[C@@H](C(=O)N[C@H](CCC(N)=O)C(=O)NCC(=O)N[C@H](CO)C(=O)N[C@H](C)C(=O)N[C@H](CCCNC(=N)N)C(=O)N[C@H](Cc1ccccc1)C(N)=O)[C@H](C)CC)[C@H](C)O)[C@H](C)CC)[C@H](C)O)C(C)C [D-CATH2] | 0.6 to 2.5 | 3.04 |  |  | considerably reduced | delayed mortality |
